From PubChem BioAssay AID493014 (National Center for Advancing Translational Sciences (NCATS), 2011) come the findings set out here.

The nature of the experiment: qHTS Assay to Find Inhibitors of Chronic Active B-Cell Receptor Signaling. The conditions noted are these: ABC-DLBCL IkBa-CBG/CBR reporter, luminescence ratio (green luciferase fused to IkBa over red control in TMD8 lymphoma cells), 4 h. The gist of the method: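 TMD8 ABC-DLBCL cells carrying doxycycline-inducible green luciferase fused to IkappaBalpha plus unfused red luciferase were exposed to compounds (up to 46 uM) for 4 hrs at 37C. Activity came from the overlap-corrected green/red luminescence ratio.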
(Quantitative high-throughput screening tests each substance at several concentrations.)

The mark [1] stands for this setting: measured here: CBR red luminescence, cell number.
The mark [2] stands for this setting: measured here: IkBa-CBG green luminescence.

This is one part of the list. Shown are side measurements of this screen, not its main read-out; they come without a call. Compounds called inactive in the main read-out are mostly missing here. The note in brackets gives the kind of curve behind each potency; many fits are weak.

For `O=C(COC(=O)c1ccc(F)cc1)Nc1ccccc1N1CCOCC1`, the AC50 – broadly, the concentration giving half of the maximal activity seen – under setting [1] is 0.146 µM [rising, full curve].

As for `O=c1c2ccccc2nc2n1CCc1c-2[nH]c2ccccc12`, under setting [1], the AC50 was 9.2 µM [falling, partial curve, poor fit].

As for `CCn1c(SCC(=O)c2ccccc2)nnc1-c1cnccn1`, the AC50 under setting [1] was 29.1 µM [falling, single point].

As to `C[C@@H]1O[C@@H](OC[C@H]2O[C@@H](Oc3c(-c4ccc(O)cc4)oc4cc(O)cc(O)c4c3=O)[C@H](O)[C@@H](O)[C@@H]2O)[C@H](O)[C@H](O)[C@H]1O`, the AC50 under setting [1] was 1.64 µM [falling, full curve, poor fit].

With `COc1ccc(-c2[nH]nc3c2C(c2ccoc2)C(C#N)=C(N)O3)cc1` (centres undefined), under setting [1], the AC50 was 5.8 µM [falling, partial curve, poor fit].

Take `COc1ccc(-n2cc(CN[C@H]3CCCCNC3=O)c(-c3cccc(F)c3)n2)cc1`: the AC50 under setting [1] is 35.5 µM [falling, single point].

For `CCC(=O)OCC(=O)[C@@]1(OC(=O)CC)[C@@H](C)C[C@H]2[C@@H]3CCC4=CC(=O)C=C[C@]4(C)[C@@]3(Cl)[C@@H](O)C[C@@]21C`, the AC50 under setting [1] is 20.6 µM [falling, single point].

For `O=C(CNC(=O)c1ccco1)Nc1ccc(N2CCCCCC2)cc1`, the AC50 under setting [1] was 7.31 µM [rising, partial curve, poor fit].

With `COc1cc(OC)c(OC)cc1/C=C1\Oc2cc(OCC(=O)N3Cc4ccccc4C[C@H]3C(=O)O)ccc2C1=O`, the AC50 under setting [1] was 2.82 µM [falling, partial curve, poor fit].

`CN(Cc1ccccc1NS(=O)(=O)c1ccc(Cl)cc1)C1CCCCC1`: the AC50 under setting [1] was 0.631 µM [rising, full curve, poor fit].

With `COc1ccc(Nc2nc(CN3CCOCC3)nc3sc4c(c23)CCC(C)C4)cc1OC` (centres undefined), under setting [1], the AC50 was 0.731 µM [rising, full curve, poor fit].

Turning to `Cc1nc2ccccc2c(=O)n1/N=C/c1ccncc1`, under setting [1], the AC50 was 4.61 µM [rising, partial curve].

Consider `O=C(Nc1cccc(S(=O)(=O)N2CCCCCC2)c1)c1ccc(Cl)nc1`, for which the half-maximal activity concentration (AC50) under setting [1] was 8.2 µM [falling, partial curve, poor fit].

On to `CC(C)Oc1ccc(C(=O)NC2CCCCC2)cc1`, for which the AC50 under setting [1] is 1.46 µM [falling, full curve].

On to `CCc1[nH]nc2c1C(c1cccc(OC(=O)N3CCOCC3)c1)C(C#N)=C(N)O2` (centres undefined), for which the AC50 is, setting by setting: under setting [1], 18.4 µM [falling, single point]; under setting [2], 16.4 µM [rising, partial curve, poor fit].

In the case of `CCOC(=O)Cc1cc(=O)n2[nH]c(-c3ccc(C)cc3)cc2n1`, the AC50 under setting [1] is 23.1 µM [falling, partial curve, poor fit].

As for `Cn1nnnc1SCc1nc2scc(-c3ccc(Cl)cc3)c2c(=O)[nH]1`, under setting [1], the AC50 was 25.1 µM [rising, single point].

In the case of `O=C(O/N=C(\c1ccccc1)c1ccccn1)c1cccc2ccccc12`, the AC50 under setting [1] was 9.2 µM [rising, partial curve].

In the case of `COc1ccc(-c2cn(-c3ccc(SC(F)F)cc3)c3[n+]2CCC3)cc1OC`, under setting [1], the AC50 was 6.51 µM [rising, single point].

In the case of `CN(C)/C=C(\C#N)C(=O)N/N=C(\CC(=O)C(F)(F)F)c1ccco1`, under setting [1], the AC50 was 14.1 µM [rising, single point].

As to `CCOc1ccc(-n2nnnc2SCC(=O)c2ccccc2)cc1`, the AC50 is, setting by setting: under setting [1], 35.5 µM [rising, partial curve, poor fit]; under setting [2], 35.5 µM [falling, single point].

On to `Cc1c(C(=O)OC2CCCCC2)sc2nc[nH]c(=O)c12`, for which, under setting [1], the AC50 is 9.2 µM [rising, partial curve].

As for `Cc1cc2c(cc1C)NC(c1c(C)n(C)n(-c3ccccc3)c1=O)C1=C(CC(C)(C)CC1=O)N2` (centres undefined), the AC50 under setting [1] was 0.326 µM [rising, full curve, poor fit].

Take `CC(C)(C)C(=O)N1CCN(c2nc3ccccc3s2)CC1`: the AC50 under setting [1] is 3.55 µM [rising, partial curve, poor fit].

For `CC(C)(C)NS(=O)(=O)c1cccc(S(=O)(=O)c2cccc(S(=O)(=O)NC(C)(C)C)c2)c1`, under setting [1], the AC50 was 0.282 µM [rising, full curve, poor fit].

Turning to `CCN(C(=O)C(=O)c1c[nH]c2ccccc12)c1ccccc1`, under setting [1], the AC50 is 6.31 µM [falling, partial curve].

In the case of `O=C(COC(=O)[C@H](Cc1ccccc1)NC(=O)c1cccs1)NC1CCCCC1`, under setting [1], the half-maximal activity concentration (AC50) was 25.9 µM [falling, single point].

For `CC(C)CCn1cnc2c(cnn2-c2ccc(Cl)cc2)c1=O`, the AC50 under setting [1] was 6.31 µM [falling, single point].

For `NCCCC[C@@H]1NC(=O)c2cc([N+](=O)[O-])cc(I)c2SC[C@@H](C(N)=O)NC(=O)[C@H](Cc2ccc(O)cc2)NC1=O`, the AC50 under setting [1] was 20.6 µM [rising, partial curve, poor fit].

As to `Brc1ccc(N=C/C=C/C=C/Nc2ccc(Br)cc2)cc1`, under setting [1], the AC50 is 0.562 µM [falling, partial curve, poor fit].

As for `O=S1(=O)[C@H]2C[C@H](CO)O[C@@]2(CO)CN1Cc1ccc(-c2ccc(F)cc2)cc1`, the AC50 reads like this: under setting [1], 23.1 µM [rising, partial curve]; under setting [2], 4.11 µM [falling, single point].

In the case of `Cc1ccc(-c2nc3c(c(=O)[nH]c(=O)n3Cc3ccccc3)n2C)o1`, under setting [1], the AC50 was 6.31 µM [rising, single point].

In the case of `O=C(COc1cccnc1[N+](=O)[O-])Nc1ccc(Cl)c(S(=O)(=O)N2CCOCC2)c1`, under setting [1], the AC50 is 35.5 µM [falling, single point].

With `Cc1ccc(C(=O)C(C)OC(=O)CCN2C(=O)C3C4C=CC(C5CC45)C3C2=O)cc1` (centres undefined), the AC50 under setting [1] is 3.16 µM [rising, full curve, poor fit].

On to `COc1ccc(C(CNC(=O)c2cccc(NS(=O)(=O)c3ccc(Br)cc3)c2)N(C)C)cc1` (centres undefined), for which the AC50 under setting [1] was 25.9 µM [falling, single point].

With `C/C(=N\Nc1nc2ccccc2[nH]1)c1ccccn1`, the AC50 under setting [1] was 8.91 µM [falling, partial curve, poor fit].
